{
  "source": "patent US20130065226A1",
  "about": "“METHOD OF DETERMINING DOSE AND ADMINISTRATION OF STATIN” (TOHOKU UNIVERSITY, priority 2011, published 2013)",
  "assay": "Human study: plasma lipid profiles, glucose, insulin and HOMA-IR",
  "type": "in vivo",
  "conditions": "healthy volunteers",
  "excerpt": "The exclusion criteria included abnormal liver or kidney dysfunction before and during the statin administration and treatment.",
  "key": {"[1]": {"conditions": "20 mg day^−1, after 2 weeks vs baseline"}, "[2]": {"conditions": "fasting, 20 mg day^−1 oral, 2 weeks"}},
  "data": [
    {"smiles": "CC(C)c1c(C(=O)Nc2ccccc2)c(-c2ccccc2)c(-c2ccc(F)cc2)n1CC[C@@H](O)C[C@@H](O)CC(=O)O", "note": "[atorvastatin]", "values": [
      {"measurement": "Glucose, Change (%)", "setting": "[1]", "result": 1, "unit": "%"},
      {"measurement": "HOMA-IR, Change (%)", "setting": "[1]", "result": "−5", "unit": "%"},
      {"measurement": "Insulin, Change (%)", "setting": "[1]", "result": "−6", "unit": "%"},
      {"measurement": "Glucose, After 2 weeks", "setting": "[2]", "result": "98 ± 1.5", "unit": "mg/dL"},
      {"measurement": "HOMA-IR, After 2 weeks", "setting": "[2]", "result": "2.0 ± 0.1"},
      {"measurement": "Insulin, After 2 weeks", "setting": "[2]", "result": "8.3 ± 0.5", "unit": "μIU ml^−1"}
    ]}
  ]
}
